What all share (assay): EMSA
In general terms: Mobility shift assays separate free from complexed probe on a gel.

The subject of one data set is E47/NeuroD1 heterodimer. Conditions: weakest of four; protein translated in vitro; protein details: TNT reticulocyte lysate; label: 32P.
Data set [1] deals with E47/neurogenin3 heterodimer. Conditions: weakest of four; protein translated in vitro; protein details: TNT reticulocyte lysate; label: 32P.
For the next data set, the target named is T1, HES1 (UniProt Q04666).
T1 sequence (looked up, limits assumed): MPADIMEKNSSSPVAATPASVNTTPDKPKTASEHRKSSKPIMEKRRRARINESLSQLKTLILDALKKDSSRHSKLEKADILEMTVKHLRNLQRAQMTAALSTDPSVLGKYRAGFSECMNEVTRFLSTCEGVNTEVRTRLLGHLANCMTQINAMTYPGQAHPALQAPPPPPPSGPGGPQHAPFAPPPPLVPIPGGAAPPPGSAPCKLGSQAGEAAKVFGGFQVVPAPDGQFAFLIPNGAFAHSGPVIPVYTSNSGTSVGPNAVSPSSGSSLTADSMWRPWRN
The following applies: binds with lower affinity than ngn3 sites; purified recombinant protein; protein details: GST fusion (pGEX2T, E. coli BL21); label: 32P.

Another data set deals with T2, HNF3beta (endogenous) (UniProt P35583).
T2 sequence (looked up, limits assumed): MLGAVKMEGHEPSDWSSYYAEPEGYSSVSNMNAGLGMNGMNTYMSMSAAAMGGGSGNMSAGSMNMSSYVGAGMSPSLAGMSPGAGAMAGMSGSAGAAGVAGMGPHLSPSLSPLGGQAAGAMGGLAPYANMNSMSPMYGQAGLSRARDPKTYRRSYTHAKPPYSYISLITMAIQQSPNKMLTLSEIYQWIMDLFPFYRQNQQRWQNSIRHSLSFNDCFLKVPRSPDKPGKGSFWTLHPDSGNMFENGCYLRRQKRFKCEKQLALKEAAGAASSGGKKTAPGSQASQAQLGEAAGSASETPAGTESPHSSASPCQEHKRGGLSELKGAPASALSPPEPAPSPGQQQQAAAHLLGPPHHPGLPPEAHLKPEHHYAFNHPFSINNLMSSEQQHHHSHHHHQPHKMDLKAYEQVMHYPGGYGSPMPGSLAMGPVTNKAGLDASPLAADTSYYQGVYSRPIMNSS
The following applies: single major complex recognized by HNF3beta antiserum; protein in an extract; protein details: betaTC3 and alphaTC1.6 nuclear extract; label: 32P.

For some assays here: The comparison behind a weaker result is the experiment's own reference, which may not be listed here. For some assays here: Where a protein sequence is shown, tags need not be part of it. For some assays here: Where cells or extracts were used, other partners may take part.

Take “CTTTGTCCGGAATCCAGCTGTGCCCTGCGGGGGAG (double strand) [NEUROG3 E box]”: the binding result (with E47/NeuroD1 heterodimer; in data set [1]) was “binds more weakly” in each case.
In the case of “GATCTCGCCACGAGCCACAAGGATTG (double strand) [H1P]”, the binding result in the data set with HES1 is “binds more weakly”.
For the sequence “GATCTCTCGAGAGAGCAAACAGCGCGGCGG (double strand) [H3-1 (ngn3 promoter proximal)]”, the binding result with HNF3beta (endogenous) is listed as “binds”.
The same measure, in the same setting: in the case of “TTATTATTATTTTAGCAAACACTGGAGACAG (double strand) [H3-2 (ngn3 promoter distal)]” it was “binds”.

The record behind these values is patent US20040106555.
